Data from the supplement of paper PMC4604168 (melanoma cell lines).
Some of the results follow. Many values rest on one well or one pass, so single values are uncertain.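 Imaging used 1,536-well plates; nuclei positive for cleaved PARP by antibody were divided by total DNA-stained nuclei to yield the apoptosis fraction. Doses for screening kept most cells viable, and cell lines differ markedly in resting and induced cleaved-PARP levels.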

Columns and labels:
Test in all cases: cleaved PARP positive nuclei fraction relative to DMSO control; melanoma cells; higher = more apoptosis
Settings in all cases: library dose: low library concentration; 72 h
MZ2-MEL = system: MZ2-MEL
MeWo = system: MeWo
RPMI7951 = system: RPMI7951
RVH-421 = system: RVH-421
SkMel28 = system: SkMel28
SkMel30 = system: SkMel30
SkMel5 = system: SkMel5
UACC257 = system: UACC257
UACC62 = system: UACC62
SkMel2 = system: SkMel2

SMILES	cleaved PARP positive nuclei fraction (MZ2-MEL)	cleaved PARP positive nuclei fraction (MeWo)	cleaved PARP positive nuclei fraction (RPMI7951)	cleaved PARP positive nuclei fraction (RVH-421)	cleaved PARP positive nuclei fraction (SkMel28)	cleaved PARP positive nuclei fraction (SkMel30)	cleaved PARP positive nuclei fraction (SkMel5)	cleaved PARP positive nuclei fraction (UACC257)	cleaved PARP positive nuclei fraction (UACC62)	cleaved PARP positive nuclei fraction (SkMel2)
CC1(C)NC(=O)N(c2ccc([N+](=O)[O-])c(C(F)(F)F)c2)C1=O [nilutamide] + Oc1nc(-c2ccc(C(F)(F)F)cc2)nc2c1CSCC2 [XAV939] (first compound 1 µM, partner dose 2 µM)	90%	57.1%	46.8%	57.2%	88.5%	34.9%	35.9%	112%	69.1%	
O=C(CCCCCCC(=O)Nc1ccccc1)NO [vorinostat] + O=C(Nc1ccccc1)c1cc([N+](=O)[O-])ccc1Cl [GW9662] (first compound 0.08 µM, partner dose 2 µM)	120%	207%	151%	63.4%	161%	102%	61.7%	84.9%	141%	
CC(=O)c1c(C)c2cnc(Nc3ccc(N4CCNCC4)cn3)nc2n(C2CCCC2)c1=O [palbociclib] + O=S(=O)(c1ccccc1)N(CC(F)(F)F)c1ccc(C(O)(C(F)(F)F)C(F)(F)F)cc1 [T0901317] (first compound 0.04 µM, partner dose 1.4 µM)		52.1%	149%	140%	110%	52.5%	105%	140%	96.9%	131%
O=C(CCCCCCC(=O)Nc1ccccc1)NO [vorinostat] + COc1ccc2c(c1)CCC1C2CCC2(C)C(NCCCCCCN3C(=O)C=CC3=O)CCC12 [U73122] (first compound 0.08 µM, partner dose 0.4 µM)	146%	105%	106%	32.2%	216%	139%	109%	154%	182%	
NC(=O)Nc1cc(-c2cccc(F)c2)sc1C(=O)N[C@H]1CCCNC1 + CCCCCCCCCCCC1=C(O)C(=O)C=C(O)C1=O [Embelin] (first compound 0.02 µM, partner dose 1.2 µM)	32.2%	91.6%	114%	97.1%	104%	12.6%	97.8%	159%	38.4%	
C#Cc1cccc(Nc2ncnc3cc(OCCOC)c(OCCOC)cc23)c1 [erlotinib] + OCCn1cc(-c2cnc3nnn(Cc4ccc5ncccc5c4)c3n2)cn1 [PF04217903] (first compound 0.8 µM, partner dose 1 µM)		57.2%	47.1%	50.5%	53%	58.3%	103%	129%	202%	122%
C[C@]1(c2nc3c(C(N)=O)cccc3[nH]2)CCCN1 [Veliparib] + COc1ccc(COc2ccc(Cc3cnc(N)nc3N)cc2OC)cc1 [GW2580] (first compound 1.4 µM, partner dose 1 µM)	169%	28.2%	94.7%	93.8%	150%	39.7%	27.8%	94%	44.5%	
C[C@]1(c2nc3c(C(N)=O)cccc3[nH]2)CCCN1 [Veliparib] + O=C1NC(=O)/C(=C/c2ccc(-c3ccc(F)cc3O)o2)S1 [AS252424] (first compound 1.4 µM, partner dose 1 µM)	94.6%	114%	277%	93.2%	38.5%	55%	56%	72.9%	112%	
C=CCn1c(=O)c2cnc(Nc3ccc(N4CCN(C)CC4)cc3)nc2n1-c1cccc(C(C)(C)O)n1 + Oc1cc(-c2nc(-c3ccccc3)[nH]c2-c2ccncc2)ccc1Cl [L779450] (first compound 0.02 µM, partner dose 0.2 µM)	83.3%	56.7%	178%	120%	275%	166%	38.3%	190%	195%	
COCC[n+]1c2c(n(Cc3cnccn3)c1C)C(=O)c1ccccc1C2=O + O=C(Nc1ccccc1)c1cc([N+](=O)[O-])ccc1Cl [GW9662] (first compound 0.0004 µM, partner dose 2 µM)	139%	55.9%	51.7%	164%	210%	33.9%	158%	46.6%	39.1%	
Cn1c(Nc2ccc(C(F)(F)F)cc2)nc2cc(Oc3ccnc(-c4ncc(C(F)(F)F)[nH]4)c3)ccc21 + O=S(=O)(c1ccccc1)N(CC(F)(F)F)c1ccc(C(O)(C(F)(F)F)C(F)(F)F)cc1 [T0901317] (first compound 0.08 µM, partner dose 1.4 µM)	130%	168%	135%	71.1%	184%	41.3%	77.3%	920%	149%	
Cc1nc(Nc2ncc(C(=O)Nc3c(C)cccc3Cl)s2)cc(N2CCN(CCO)CC2)n1 [dasatanib] + CN(C)S(=O)(=O)c1ccc2c(c1)/C(=C/c1cc3c([nH]1)CCCC3)C(=O)N2 [SU6656] (first compound 0.004 µM, partner dose 0.4 µM)		41%	188%	87.1%	88.4%	78.4%	104%	87.1%	207%	55.5%

Looked up above:
C[C@]1(c2nc3c(C(N)=O)cccc3[nH]2)CCCN1 [Veliparib] + COc1ccc(COc2ccc(Cc3cnc(N)nc3N)cc2OC)cc1 [GW2580] (first compound 1.4 µM, partner dose 1 µM) – cleaved PARP positive nuclei fraction (RVH-421): 93.8%
O=C(CCCCCCC(=O)Nc1ccccc1)NO [vorinostat] + O=C(Nc1ccccc1)c1cc([N+](=O)[O-])ccc1Cl [GW9662] (first compound 0.08 µM, partner dose 2 µM) – cleaved PARP positive nuclei fraction (UACC62): 141%
